Test results reported in patent US20130123168A1, “HUMANIN AND HUMANIN-ANALOGUES FOR THE MANAGEMENT OF ATHEROSCLEROSIS” (The Regents of the University of California, priority 2011, published 2013).

Experiment: Plasma HN level according to coronary endothelial function
Parameters: species or system human
Conditions: endogenous level
Protocol: Plasma HN levels were measured in 20 patients with normal coronary endothelial function and 20 patients with coronary endothelial dysfunction. Age, sex, smoking diabetes mellitus, hypertension, body mass index, total cholesterol, LDL-cholesterol, HDL-cholesterol and TG level were not different between the two groups. […] FIG. 8.

For humanin [HN], the “plasma HN level” value (normal coronary endothelial function group) was 2.20 ± 0.33 ng/mL and the “plasma HN level” value (patients with coronary endothelial dysfunction) was 1.28 ± 0.25 ng/mL.
